PubChem BioAssay AID2685 (National Center for Advancing Translational Sciences (NCATS), 2010)
Some of the results follow. Shown are side measurements of this screen, not its main read-out; they come without a call. Most of these compounds were active or inconclusive in the main read-out, so they are no random draw. Words in brackets tell the shape of the fitted curve; partial curves, single points and poor fits give uncertain potencies.

Assay: qHTS Assay for Lipid Storage Modulators in Drosophila S3 Cells;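 on cell number change: cells counted by Cell Tracker Red CMTPX staining in the red channel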
Settings: BODIPY lipid droplet fluorescence, 18-24 h; for cell number change: measured here: cell count max response, cells fed with added oleic acid
In short: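 Laser-scanning cytometry quantifies lipid droplet accumulation (500–530 nm total intensity; droplet/cell object ratio) in oleic acid-fed (400 uM added) Drosophila S3 cells treated with a concentration series. 20 uM Triacsin C defined 100% inhibition.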

[1] = measured here: cell number channel AC50, cells fed with added oleic acid
[2] = measured here: lipid fluorescence (Fed channel) AC50, cells fed with added oleic acid

Row | SMILES | cell number change | AC50 [1] | AC50 [2]
1 | COc1ccc2nc(SCC(=O)N(C)C3CCCCC3)[nH]c2c1 | -59.2% | 3.26 µM [falling, full curve] | 0.0517 µM [falling, full curve]
2 | CC(C)(C)C1CCC(=NOC(=O)c2ccc(F)cc2)CC1 (stereo not given) | 2.74% | 0.00411 µM [falling, full curve, poor fit] | 
3 | Cc1csc(=O)n1CCC(=O)OCC(=O)Nc1ccc(F)c(F)c1F | -3.42% |  | 
4 | O=C(Cc1ccc(F)cc1)N/N=C/c1ccncc1 | -17% |  | 
5 | Cc1ccc(Cl)cc1NC(=S)N(CCN(C)C)Cc1cccs1 |  | 6.51 µM [rising, partial curve, poor fit] | 
6 | CCN(CC)S(=O)(=O)c1ccc(N2CCCC2)c(C(=O)OCC(=O)/C(C#N)=C(\C)N)c1 | 3.05% |  | 0.517 µM [rising, full curve]
7 | CCOc1c(OC(C)=O)ccc(/C=C2\N=C(SCC)SC2=O)c1[N+](=O)[O-] | 0.536% |  | 
8 | CCOc1ccccc1NC(=O)C(=O)NCC1CCCN1CC (stereo not given) | -20.4% |  | 
9 | COc1ccc(OCc2ccc(C(=O)NN)cc2)cc1 | 15.4% |  | 
10 | CCCCC(O)(C(NC=O)C(=O)OC)C(F)(F)F (stereo not given) |  | 6.51 µM [falling, single point] | 
11 | CCc1cccc(OCCCCNCCO)c1 | -32.2% | 0.164 µM [falling, full curve] | 0.82 µM [falling, full curve]
12 | CCOc1ccc(NC(=O)CN(C)C(=O)Cn2cnc3c2c(=O)n(C)c(=O)n3C)cc1OCC |  | 6.51 µM [falling, single point] | 29.1 µM [rising, single point]
13 | C(=N\N1CCN(c2ccccn2)CC1)/c1cccc2ccccc12 | 10.6% |  | 1.84 µM [rising, partial curve, poor fit]
14 | O=C1CN(C(=S)Nc2ccc(OC(F)F)cc2)CCN1 | 1.04% | 1.46 µM [falling, partial curve, poor fit] | 
15 | COC(=O)C1=C(C)OC(N)=C(C#N)C1c1cc(C)sc1C (stereo not given) | -2.56% |  | 0.58 µM [rising, single point]
16 | CCCCc1nc(SCCN2CCOCC2)c2c(=O)n(C)c(=O)n(C)c2n1 |  | 6.51 µM [rising, partial curve, poor fit] | 
17 | O=C(c1ccc(N2C(=O)C3C4CC(C(Br)C4Br)C3C2=O)cc1)N1CCCCC1 (stereo not given) | -10.5% |  | 
18 | COCCCn1c(Cc2csc(Nc3cccc(Cl)c3)n2)nnc1SCC(=O)OC1CCCCC1 | -27.7% |  | 32.6 µM [falling, partial curve, poor fit]
19 | Cc1cccc(CSc2nc3ccccc3c(=O)n2C)c1 | -23.5% |  | 0.731 µM [falling, full curve, poor fit]
20 | Cc1cc(NC(=O)CN2CCN(C)CC2)no1 | -25.2% |  | 
21 | NS(=O)(=O)c1ccc(CCNC(=O)CN2C(=O)COc3ccc(S(=O)(=O)N4CCCC4)cc32)cc1 | 12.2% |  | 29.1 µM [rising, single point]
22 | CCn1ncc(Cl)c1C(=O)NC(=S)Nc1ccccc1Br | -7.23% | 0.0731 µM [rising, full curve, poor fit] | 0.326 µM [falling, full curve, poor fit]

Row | SMILES | cell number change | AC50 [1] | AC50 [2]
23 | CCCn1cnnc1CNC(=O)C1CCC(=O)N(CCCc2ccccc2)C1 (stereo not given) | -17.9% |  | 16.4 µM [falling, single point]
24 | NS(=O)(=O)c1ccc(CCNC(=O)COC(=O)CCN2C(=O)C3CC=CCC3C2=O)cc1 (stereo not given) | -15.5% |  | 20.6 µM [rising, single point]
25 | Cc1nc2ccc(NC(=O)c3cc(S(=O)(=O)N(C)c4ccccc4)ccc3Cl)cc2s1 | 4.57% |  | 1.84 µM [rising, partial curve, poor fit]
26 | Cc1cc(C(=O)OCC(=O)Nc2ccc(S(=O)(=O)N3CCOCC3)cc2)c(C)o1 | -23.1% |  | 
27 | O=C(NCc1ccccc1)c1onc(CSc2ccc(F)cc2)c1C(=O)NCCCN1CCOCC1 | -6.28% | 1.84 µM [rising, partial curve] | 
28 | COc1ccc(S(=O)(=O)NC2CCCCC2)cc1C(=O)N1CCCCC1 |  |  | 4.11 µM [rising, full curve, poor fit]
29 | CCCN1C(=O)/C(=C/c2ccc(C)o2)NC1=S | -3.33% |  | 
30 | CCc1ccc(-c2csc3ncn(Cc4ccc(C(=O)O)cc4)c(=O)c23)cc1 | -49.4% | 29.1 µM [falling, single point] | 
31 | CC(C)c1ncc(C(O)c2cccc3ccccc23)n1C (stereo not given) | 8.98% |  | 29.1 µM [falling, single point]
32 | CCN1C(=NCCCCO)N[C@@H](c2cccc(F)c2)C(C(=O)OC)=C1C | 22.7% |  | 
33 | CC(=O)c1ccc(C(=O)N2CCCC(Nc3ccccc3)C2)s1 (stereo not given) |  |  | 29.1 µM [rising, single point]
34 | COc1cccc(/C(O)=C/c2nc3ccc(C(=O)NCCc4cccc(C)c4)cc3[nH]c2=O)c1 | 5.39% |  | 18.4 µM [falling, single point]
35 | CC(/C=N/n1c(-c2ccc(Cl)cc2)n[nH]c1=S)=C\c1ccco1 | -58.6% | 13 µM [falling, partial curve] | 13 µM [falling, partial curve]
36 | C=C(C)C(=O)Nc1cccc(C(C)=O)c1 | 35.8% | 0.0231 µM [rising, full curve, poor fit] | 
37 | Cc1cccc(-c2csc(N)c2C(=O)OC(C)C)c1 | -58.5% | 18.4 µM [falling, single point] | 16.4 µM [falling, single point]
38 | CN1C(=O)C(C)(C)c2cc(S(=O)(=O)NCC(=O)NCc3ccccc3)ccc21 | -29.1% |  | 
39 | CCCCCNC(=O)C(C)NS(=O)(=O)c1ccc(OC)cc1 (stereo not given) | -20.1% | 0.103 µM [falling, full curve, poor fit] | 
40 | Cc1ccc(NC(=O)c2ccccc2)cc1C | -12.1% |  | 6.51 µM [falling, single point]
41 | CCSc1nnc2c3cc(CC)ccc3n(C)c2n1 | 13.2% |  | 29.1 µM [falling, single point]
42 | CCOC(=O)c1sc(NC(=O)CN(CC)CC)c(C(=O)OCC)c1C | 13.7% | 0.13 µM [rising, full curve, poor fit] | 0.58 µM [rising, single point]
43 | COc1cccc(-c2cccc(NC(=O)C3CCN(Cc4ccon4)CC3)c2)c1 | -4.72% |  | 0.58 µM [falling, single point]
44 | O=C(COc1nsnc1N1CCOCC1)Nc1ccc(Br)cc1 | -19% |  | 

Molecules listed so far that have a furan ring, fused or not:
Row | SMILES | cell number change | AC50 [1] | AC50 [2]
26 | Cc1cc(C(=O)OCC(=O)Nc2ccc(S(=O)(=O)N3CCOCC3)cc2)c(C)o1 | -23.1% |  | 
29 | CCCN1C(=O)/C(=C/c2ccc(C)o2)NC1=S | -3.33% |  | 
35 | CC(/C=N/n1c(-c2ccc(Cl)cc2)n[nH]c1=S)=C\c1ccco1 | -58.6% | 13 µM [falling, partial curve] | 13 µM [falling, partial curve]

Random excerpt: two compounds from above, in no set order.
Row | SMILES | cell number change | AC50 [1] | AC50 [2]
43 | COc1cccc(-c2cccc(NC(=O)C3CCN(Cc4ccon4)CC3)c2)c1 | -4.72% |  | 0.58 µM [falling, single point]
27 | O=C(NCc1ccccc1)c1onc(CSc2ccc(F)cc2)c1C(=O)NCCCN1CCOCC1 | -6.28% | 1.84 µM [rising, partial curve] | 

Going on with the list.

Row | SMILES | cell number change | AC50 [1] | AC50 [2]
45 | CCOc1ccc(OCC(=O)Nc2ccc(OC)cc2[N+](=O)[O-])cc1 | -6.8% |  | 20.6 µM [falling, single point]
46 | CCOC(=O)c1[nH]c(C)c(C(=O)Nc2cc(Cl)ccc2C)c1C |  | 0.116 µM [rising, full curve, poor fit] | 
47 | O=C(COC(=O)c1ccc(O)cc1)NC1CCCCCC1 | 16.6% |  | 3.66 µM [rising, full curve]
48 | N#Cc1cc(N2CCOCC2)nc2ccccc12 | 25.9% |  | 
49 | CC(C)C(NC(=O)c1ccccc1)c1nnc(SCC(=O)Nc2nccs2)n1C (stereo not given) | 4.06% |  | 0.13 µM [rising, full curve, poor fit]
50 | O=C1CC(c2ccc3ccccc3c2)NN1 (stereo not given) | 3.82% |  | 
51 | Brc1ccc(-c2nn3c(-c4ccco4)nnc3s2)o1 | -9.24% |  | 1.84 µM [rising, single point]
52 | COc1ccc(NC(=O)CC2C(=O)N(CCc3ccccc3)C(=S)N2Cc2cccnc2)cc1 (stereo not given) | -10.9% |  | 0.411 µM [falling, full curve, poor fit]
53 | CCc1cc(=O)oc2cc(C)c3c(C)coc3c12 | -6.95% |  | 4.11 µM [falling, full curve, poor fit]
54 | COc1ccc(OC)c(S(=O)(=O)NC(N)=NCCc2ccccc2OC)c1 |  |  | 5.8 µM [rising, single point]
55 | Cc1ccc(-c2nc(=O)[nH]c3ccc(Br)cc23)cc1 | -27.2% |  | 9.2 µM [falling, partial curve]
56 | Cc1cccc(-c2nnc(SCC3CNC(=O)O3)n2-c2ccc(Cl)cc2)c1 (stereo not given) | -0.701% |  | 6.51 µM [rising, single point]
57 | O=C(NCCc1nnc2ccc(NCC3CCCO3)nn12)c1ccccc1 (stereo not given) |  | 1.16 µM [falling, full curve, poor fit] | 
58 | COc1ccc2c(C)cc(SCC(=O)Nc3c(C)n(C)n(-c4ccccc4)c3=O)nc2c1 | -14.6% |  | 
59 | COc1ccc(NS(=O)(=O)c2cccc(Cl)c2)cc1S(=O)(=O)N1CCCCC1 | -51.4% | 29.1 µM [falling, single point] | 
60 | Cc1cc2c(c(=O)n1Cc1ccccc1)C1O[C@](c3ccsc3)(Cc3ccccc31)O2 | 27.2% |  | 5.96 µM [falling, single point]
61 | COc1ccc(C(=O)OCC(=O)NC2CCCCCC2)c(OC)c1 | 16.2% |  | 2.91 µM [rising, full curve]
62 | COCc1cc(/C=N\NC(=O)Cc2ccc(Cl)cc2)ccc1OC |  | 3.66 µM [rising, partial curve] | 29.1 µM [rising, single point]
63 | CCn1nc(NC(=O)c2ccncc2)c2cc3ccccc3nc21 | 7.82% |  | 6.51 µM [rising, single point]
64 | Cn1c(C(=O)N2CCCc3ccccc32)cc2c(=O)n3ccccc3nc21 | -4.58% |  | 
65 | O=C(CSc1nc2ccccc2s1)NCc1ccc2c(c1)OCO2 | 26.6% |  | 0.651 µM [rising, partial curve]
66 | Nc1ccncc1N | -32% | 0.82 µM [falling, full curve, poor fit] | 13 µM [falling, partial curve]
